No constants are given. Whether binding was seen depends on the method and setting. In cells and extracts the contact can be indirect. Some entries that bind do so weakly or less than the wild type. Sequences can lack the tags named with a protein.
Target: T1, GST-S1CD fusion protein (mouse) (UniProt P18828)
T1 sequence: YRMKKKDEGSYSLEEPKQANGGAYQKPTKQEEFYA
Assay: pull-down; GST or GST-S1CD adsorbed to glutathione-agarose, incubated 2 hours at 4°C with triple detergent extracts of 3T3 cells that overexpress Topors, diluted in NET-BSA; eluted with glutathione; western blot with chicken anti-Topors; only the target purified

binding: binds
B1: carboxyl-terminal c-Myc epitope-tagged murine Topors overexpressed in 3T3 cells (protein, UniProt Q80Z37 1-1016)
chain: MGSQPPPPGSPLSREEGEAPPLVPAEEGRRRSRRVRLRGSCRHRPSLLSRRELASNGPAVPATASSEIMASAAKEFKMDNFSPKAGTSKLQQTVPADASPDSKCPICLDRFDNVSYLDRCLHKFCFRCVQEWSKNKAECPLCKQPFDSIFHSVRAEDDFKEYVLRPSYNGSFTNPEVRRFRYRTTMTRERSASLYSPSSTVSRRTTTPPDSGVLFEGLGISTRPRDVDIPQFMRQMALRGPTTTDERSLRKIQEQDIINFRRTLYRAGVRVRSIEDGGRYRDISAEFFRRNPACLHRLVPWLKRELTVLFGAHGSLVNIVQHIIMSNVTRYDLESQAFVSDLRPFLLNRTEHFIHEFISFARSPFNMAAFDQHANYDCPPSSEEGSRSDSSVITISPDEAETQELDMNASTVRQAPWDDETPGPSYSSSEQVHVGVSSLLNSSDSSDEELVSGGTTSQIQGVQTNDDVNNDSDSSSDNCVIVGFVKPLAERTPELVELSSDSEELGPYEKVETVKTQEQEQSYSSGDSDVSRASSPRSVLGKDEQMSKSHCDSDTRISSKKEEKRSTSLPAPRDSSSTRGDRVCSPYNHRHRKGGRSRSSDSRSQSRSGHDPRNHRKHGKKRLRNKRSRSRESSSRPRARKDKKRSRTRDSSWSRRSQTLSLSSGSTSRSRSRSSDHGKRRSRSRNRDRYYLRNNYGSKYKWEYTYYSRNKDRDGYESSYRRRTLSRAHYSRQSSSPEFRIQSFSERTNARKKNHSERKYYYYERRRSRSVSSNRSRTTSAGPDRVRNEKPGGKRKYKTRHLEGTSEEAQPAREFTSKGKDSHYQKSKLDGSYKNESDSFSDSRSSDRETKHKRRRRRTRSLSVEIVYEGKATDTSKHHKKKKKKHKKKHKKHHGDNTSRSPVVITIDSDSDGESEVKAGIECSNGSLPQPIQDGAFETKDVVTIEDELGVLDKDCDVTALADDLSTSQTVENCDSPAVPVEQTLDVREESTFASDLESQSSNVSIQAEPSRPVPS

— article PMC3422340
